These are yes or no findings as the source states them, for the method shown. For some assays here: In cells and extracts the contact can be indirect. Some results given as binding are weak or reduced against the parent protein; the word gives no strength. For some assays here: Sequences can lack the tags named with a protein.

What all share (conditions): remark: other sources report otherwise
For experiment [1], the target named is T7-RelA, Q04206. Description: co-immunoprecipitation from transfected COS7 cells (anti-T7 IP, anti-Flag blot).
The target of experiment [2] is T7-RelA, Q04206. Description: co-immunoprecipitation (FIG. 3B).
Experiment [3] concerns the target T7-RelA, Q04206. Description: co-immunoprecipitation (FIG. 3F).
Experiment [4] addresses T7-RelA, Q04206. Nature of the experiment: co-immunoprecipitation from co-transfected COS-7 cells.
Experiment [5] addresses endogenous RelA of untransfected HeLa cells (human), Q04206. Description: co-immunoprecipitation of endogenous proteins from untransfected HeLa cells.
The target is the same in experiment [6]. Description: co-immunoprecipitation from HeLa whole cell lysates (anti-HDAC3 IP, anti-RelA blot).
Experiment [7] has the same target. Description: co-immunoprecipitation (FIG. 3G).
Experiment [8] deals with full length RelA (mammalian two-hybrid construct), Q04206. Nature of the experiment: mammalian two-hybrid assay.
The target in experiment [9] is T1, deacetylated T7-RelA (from 293T cells co-transfected with p300 and HDAC3), Q04206. Nature of the experiment: GST pull-down (FIG. 4A).
Experiment [10] addresses T7-RelA, Q04206. Nature of the experiment: GST pull-down of T7-RelA from 293T lysate without p300 (lane 2, reference), anti-T7 blot.
In experiment [11] the target is T1, deacetylated T7-RelA (from 293T cells …). Description: GST pull-down of T7-RelA from 293T lysates, anti-T7 blot.

B1: HDAC3-Flag, O15379 1-428 (enzyme, UniProt O15379 1-428, looked up, not shown: small tags and cut ends)
chain: MAKTVAYFYDPDVGNFHYGAGHPMKPHRLALTHSLVLHYGLYKKMIVFKPYQASQHDMCRFHSEDYIDFLQRVSPTNMQGFTKSLNAFNVGDDCPVFPGLFEFCSRYTGASLQGATQLNNKICDIAINWAGGLHHAKKFEASGFCYVNDIVIGILELLKYHPRVLYIDIDIHHGDGVQEAFYLTDRVMTVSFHKYGNYFFPGTGDMYEVGAESGRYYCLNVPLRDGIDDQSYKHLFQPVINQVVDFYQPTCIVLQCGADSLGCDRLGCFNLSIRGHGECVEYVKSFNIPLLVLGGGGYTVRNVARCWTYETSLLVEEAISEELPYSEYFEYFAPDFTLHPDVSTRIENQNSRQYLDQIRQTIFENLKMLNHAPSVQIHDVPADLLTYDRTDEADAEERGPEENYSRPEAPNEFYDGDHDNDKESDVEI
Regarding B1, the binding result in experiment [1], in experiment [2], in experiment [3] and in experiment [4] was “binds” in each case.

B2: endogenous HDAC3 of untransfected HeLa cells, O15379 1-428 (enzyme, human, UniProt O15379 1-428, looked up)
chain: MAKTVAYFYDPDVGNFHYGAGHPMKPHRLALTHSLVLHYGLYKKMIVFKPYQASQHDMCRFHSEDYIDFLQRVSPTNMQGFTKSLNAFNVGDDCPVFPGLFEFCSRYTGASLQGATQLNNKICDIAINWAGGLHHAKKFEASGFCYVNDIVIGILELLKYHPRVLYIDIDIHHGDGVQEAFYLTDRVMTVSFHKYGNYFFPGTGDMYEVGAESGRYYCLNVPLRDGIDDQSYKHLFQPVINQVVDFYQPTCIVLQCGADSLGCDRLGCFNLSIRGHGECVEYVKSFNIPLLVLGGGGYTVRNVARCWTYETSLLVEEAISEELPYSEYFEYFAPDFTLHPDVSTRIENQNSRQYLDQIRQTIFENLKMLNHAPSVQIHDVPADLLTYDRTDEADAEERGPEENYSRPEAPNEFYDGDHDNDKESDVEI
Take B2: the binding result in experiment [5], in [6] and in experiment [7] was “binds” in each case.

B3: HDAC3 (mammalian two-hybrid construct), O15379 1-428 (enzyme, UniProt O15379 1-428, looked up, not shown: large carriers)
chain: MAKTVAYFYDPDVGNFHYGAGHPMKPHRLALTHSLVLHYGLYKKMIVFKPYQASQHDMCRFHSEDYIDFLQRVSPTNMQGFTKSLNAFNVGDDCPVFPGLFEFCSRYTGASLQGATQLNNKICDIAINWAGGLHHAKKFEASGFCYVNDIVIGILELLKYHPRVLYIDIDIHHGDGVQEAFYLTDRVMTVSFHKYGNYFFPGTGDMYEVGAESGRYYCLNVPLRDGIDDQSYKHLFQPVINQVVDFYQPTCIVLQCGADSLGCDRLGCFNLSIRGHGECVEYVKSFNIPLLVLGGGGYTVRNVARCWTYETSLLVEEAISEELPYSEYFEYFAPDFTLHPDVSTRIENQNSRQYLDQIRQTIFENLKMLNHAPSVQIHDVPADLLTYDRTDEADAEERGPEENYSRPEAPNEFYDGDHDNDKESDVEI
B3: the binding entry in [8] was “binds”.

B4: GST-IκBα, P25963 1-317 (protein, UniProt P25963 1-317, looked up, not shown: a dimerising Fc or GST)
chain: MFQAAERPQEWAMEGPRDGLKKERLLDDRHDSGLDSMKDEEYEQMVKELQEIRLEPQEVPRGSEPWKQQLTEDGDSFLHLAIIHEEKALTMEVIRQVKGDLAFLNFQNNLQQTPLHLAVITNQPEIAEALLGAGCDPELRDFRGNTPLHLACEQGCLASVGVLTQSCTTPHLHSILKATNYNGHTCLHLASIHGYLGIVELLVSLGADVNAQEPCNGRTALHLAVDLQNPDLVSLLLKCGADVNRVTYQGYSPYQLTWGRPSTRIQQQLGQLTLENLQMLPESEDEESYDTESEFTEFTEDELPYDDCVFGGQRLTL
Regarding B4, the binding result in [9], in [10] and in [11] was “binds” in each case.
